Results from patent US20240174992A1, “SPLIT MODIFIED DEHALOGENASE VARIANTS” (Promega Corporation, priority 2022, published 2024).
Results are given in words; binding and its absence hold for the method and conditions named. Some entries that bind do so weakly or less than the wild type. Sequences can lack the tags named with a protein.

Columns and labels:
[1] = molecular target: 6×His-HaloTag[22-297](M2F); experiment: fully purified system, 80 nM large fragment, peptide titration, JF646
[2] = molecular target: 6×His-HaloTag[22-297](Q145H+P154R); experiment: as above
[3] = molecular target: 6×His-HaloTag[22-297](Q145H+P154R); experiment: fully purified system, fold response over reaction without peptide, JF646

Measured: binding

B1: synthetic HaloTag[3-19] peptide (peptide)
peptide: EIGTGFPFDPHYVEVLG
binds: [1] | [2] | [3]

B2: synthetic HaloTag[3-19] peptide with two additional N-terminal arginine residues (peptide)
peptide: RREIGTGFPFDPHYVEVLG
binds: [1] | [2] | [3]
